In patent publication US20250127918A1 (priority 2023, published 2025):

Assay: general procedure: Fmoc solid-phase peptide synthesis in flow; ChemMatrix H-Rink Amide resin ([…], 150 mg; […] for GLP-01); HATU/DIEA (manual coupling of unnatural amino acids); PyAOP for Aib and N-termin
Conditions: late stage modification step

H2N-PEG8- FNMQQQRRFYEALHD PNLNHcyEQRNAKIKSI RDD
step yield: 58%
